{
  "sequences": {"note": "Chains of the proteins cited; added tags and fusions are not shown. Residues count along the entry.", "UniProt Q13233": "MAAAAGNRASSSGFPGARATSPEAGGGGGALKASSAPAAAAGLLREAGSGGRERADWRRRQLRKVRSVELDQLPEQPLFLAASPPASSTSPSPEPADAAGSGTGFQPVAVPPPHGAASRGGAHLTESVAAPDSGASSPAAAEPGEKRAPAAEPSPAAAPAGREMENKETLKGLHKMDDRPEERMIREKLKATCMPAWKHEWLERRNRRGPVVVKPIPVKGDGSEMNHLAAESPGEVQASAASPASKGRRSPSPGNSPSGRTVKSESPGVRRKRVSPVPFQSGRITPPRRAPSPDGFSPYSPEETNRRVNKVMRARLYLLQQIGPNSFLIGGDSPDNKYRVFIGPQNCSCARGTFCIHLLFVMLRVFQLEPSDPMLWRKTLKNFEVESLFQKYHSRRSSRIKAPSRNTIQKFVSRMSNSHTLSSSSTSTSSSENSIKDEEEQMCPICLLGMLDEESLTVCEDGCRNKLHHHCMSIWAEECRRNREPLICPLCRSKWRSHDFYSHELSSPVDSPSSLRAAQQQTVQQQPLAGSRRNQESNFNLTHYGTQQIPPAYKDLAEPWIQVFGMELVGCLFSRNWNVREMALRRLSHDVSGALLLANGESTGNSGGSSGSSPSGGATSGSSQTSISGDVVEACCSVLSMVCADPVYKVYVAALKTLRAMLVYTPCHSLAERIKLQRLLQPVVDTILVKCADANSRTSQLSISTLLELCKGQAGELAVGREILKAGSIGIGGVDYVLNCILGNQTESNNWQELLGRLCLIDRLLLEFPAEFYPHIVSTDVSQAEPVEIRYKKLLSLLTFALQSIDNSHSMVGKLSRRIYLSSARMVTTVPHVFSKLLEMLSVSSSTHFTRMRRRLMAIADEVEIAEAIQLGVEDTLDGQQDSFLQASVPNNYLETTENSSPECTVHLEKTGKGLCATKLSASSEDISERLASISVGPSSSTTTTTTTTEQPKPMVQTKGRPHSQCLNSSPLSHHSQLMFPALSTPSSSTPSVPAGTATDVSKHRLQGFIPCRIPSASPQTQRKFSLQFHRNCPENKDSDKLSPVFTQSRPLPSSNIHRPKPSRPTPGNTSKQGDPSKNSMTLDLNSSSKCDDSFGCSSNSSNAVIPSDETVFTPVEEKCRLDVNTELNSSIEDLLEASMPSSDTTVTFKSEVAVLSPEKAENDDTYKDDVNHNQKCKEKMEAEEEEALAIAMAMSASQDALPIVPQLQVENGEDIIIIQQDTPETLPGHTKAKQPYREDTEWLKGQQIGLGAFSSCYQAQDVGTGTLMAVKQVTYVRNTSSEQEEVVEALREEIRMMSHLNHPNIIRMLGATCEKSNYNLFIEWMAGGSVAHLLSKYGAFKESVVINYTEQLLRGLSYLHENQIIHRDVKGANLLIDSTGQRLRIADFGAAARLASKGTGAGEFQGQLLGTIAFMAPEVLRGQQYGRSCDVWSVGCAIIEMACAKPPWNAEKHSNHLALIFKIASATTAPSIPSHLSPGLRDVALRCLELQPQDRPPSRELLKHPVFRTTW", "UniProt P46531, residues 1754-2555": "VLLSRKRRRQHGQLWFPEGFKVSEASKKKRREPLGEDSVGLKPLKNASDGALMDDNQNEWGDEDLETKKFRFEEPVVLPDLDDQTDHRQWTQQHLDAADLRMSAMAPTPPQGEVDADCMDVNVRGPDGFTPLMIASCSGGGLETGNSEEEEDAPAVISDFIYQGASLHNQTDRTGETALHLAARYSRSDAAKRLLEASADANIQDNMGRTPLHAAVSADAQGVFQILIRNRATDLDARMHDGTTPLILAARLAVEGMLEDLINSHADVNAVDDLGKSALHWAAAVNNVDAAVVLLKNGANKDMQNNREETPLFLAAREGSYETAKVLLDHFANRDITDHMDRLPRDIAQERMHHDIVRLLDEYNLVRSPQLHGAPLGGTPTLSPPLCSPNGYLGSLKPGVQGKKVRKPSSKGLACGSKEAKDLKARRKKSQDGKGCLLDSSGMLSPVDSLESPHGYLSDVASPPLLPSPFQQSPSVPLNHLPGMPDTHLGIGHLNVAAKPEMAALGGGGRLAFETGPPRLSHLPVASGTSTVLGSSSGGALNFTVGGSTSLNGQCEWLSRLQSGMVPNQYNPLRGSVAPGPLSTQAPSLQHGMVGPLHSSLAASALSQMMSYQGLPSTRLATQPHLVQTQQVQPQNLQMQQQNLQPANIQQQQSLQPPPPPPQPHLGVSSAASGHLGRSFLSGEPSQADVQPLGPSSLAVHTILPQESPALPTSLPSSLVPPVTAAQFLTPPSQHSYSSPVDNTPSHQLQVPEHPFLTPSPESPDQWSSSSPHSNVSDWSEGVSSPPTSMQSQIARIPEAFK"},
  "source": "paper PMC5346697",
  "key": {"[1]": {"target": "p62/SQSTM1 (endogenous) (human (endogenous in HEK293)) (UniProt Q13501)", "assay": "co-IP; endogenous proteins of HEK293 cells with Fbw7 knockdown (shFbw7), BFA1, nutrient-rich or nutrient-deprivation; precipitated with anti-p62, blotted with anti-Notch1"}, "[2]": {"target": "p62/SQSTM1 (endogenous) (human (endogenous in HEK293)) (UniProt Q13501)", "assay": "condition: only in cells with His-Ub-7KR (no polyubiquitin chains); co-IP; endogenous proteins of HEK293 cells with His-Ub-7KR (all seven lysines of ubiquitin to arginine), BFA1, nutrient-rich or nutrient-deprivation; precipitated with anti-p62, blotted with anti-Notch1"}, "[3]": {"target": "MEKK1 (endogenous) (human (endogenous in HEK293)) (UniProt Q13233)", "assay": "co-IP; endogenous proteins of HEK293 cells cultured with BFA1 under nutrient-rich or nutrient-deprivation conditions (also shCon, shp62 or His-Ub cells); precipitated with anti-LC3, anti-p62 or anti-MEKK1 (IgG control), blotted with anti-Notch1; lysis in 20 mM Tris-HCl pH 7.4, 2 mM EDTA, 25 mM NaF, 1% Triton X-100; Protein A agarose, 4°C"}, "[4]": {"target": "p62/SQSTM1 (endogenous) (human (endogenous in HEK293)) (UniProt Q13501)", "assay": "co-IP; endogenous proteins of HEK293 cells cultured with BFA1 under nutrient-rich or nutrient-deprivation conditions (also shCon, shp62 or His-Ub cells); precipitated with anti-LC3, anti-p62 or anti-MEKK1 (IgG control), blotted with anti-Notch1; lysis in 20 mM Tris-HCl pH 7.4, 2 mM EDTA, 25 mM NaF, 1% Triton X-100; Protein A agarose, 4°C"}},
  "note": "Results are given in words; binding and its absence hold for the method and conditions named. In cells and extracts the contact can be indirect. Some entries that bind do so weakly or less than the wild type.",
  "data": [
    {"substance": "Notch1 intracellular domain (endogenous) (from UniProt P46531 1754-2555) (domain or fragment)", "values": [
      {"measurement": "binding", "setting": "[1]", "result": "no binding (condition: with Fbw7 knockdown (shFbw7))"},
      {"measurement": "binding", "setting": "[2]", "result": "no binding"},
      {"measurement": "binding", "setting": "[3]", "result": "binds"},
      {"measurement": "binding", "setting": "[4]", "result": "binds"}
    ]}
  ]
}
